This is one part of the list. The data scatter; read single values as rough.
Key:
[1] = compound: ClCC(=O)N[C@@H]1CCCc2ccccc12; assay: log2 mean competition ratio of IA-DTB cysteine labelling (DMSO/compound) (log2 ratio); higher = stronger cysteine engagement by compound; settings: treatment time: 4 h, cell line lysate: HEK293T
Protocol: (§1)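 IA-DTB competitive cysteine chemoproteomics in HEK293T RIPA lysate. Lysates were treated with compound 29 or 30 at 50 or 200 µM for 4 h, then IA-DTB (500 µM, 1 h), trypsin-digested, NeutrAvidin-enriched and analysed by diaPASEF. Competition ratio = intensity DMSO / intensity compound (n=4 treated, n=64 DMSO); binding: mean log2 CR ≥ 1 and p ≤ 0.05 plus QC filters. Target is the cysteine site.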

[2] = compound: ClCC(=O)N[C@H]1CCCc2ccccc12; assay: as above; settings: treatment time: 4 h, cell line lysate: HEK293T
Protocol: as §1

Row | Target | log2 mean competition ratio ([1]; 50 µM) | log2 mean competition ratio ([1]; 200 µM) | log2 mean competition ratio ([2]; 50 µM) | log2 mean competition ratio ([2]; 200 µM)
1 | NFXL1 C775 (UniProt Q6ZNB6) | -0.000288 | -0.12 | 0.213 | -0.155
2 | NCAPG C119 (UniProt Q9BPX3) | 0.113 | 0.0215 | -0.00275 | -0.0849
3 | NDRG3 C375 (UniProt Q9UGV2) | -0.0995 | 0.0374 | 0.0425 | 0.0666
4 | NECTIN2 C446 (UniProt Q92692) | -0.133 | 0.465 | -0.143 | 0.204
5 | NEK2 C335 (UniProt P51955) | -0.0799 | -0.152 | 0.187 | 0.134
6 | NLE1 C280 (UniProt Q9NVX2) | -0.108 | -0.186 | -0.0818 | -0.287
7 | NOL6 C665 (UniProt Q9H6R4) | -0.012 | 0.0444 | -0.239 | 0.102
8 | NGLY1 C484 (UniProt Q96IV0) | -0.0367 | -0.123 |  | -0.17
9 | NOP16 C36 (UniProt Q9Y3C1) | 0.351 | -0.304 | 0.217 | -0.312
10 | NEK9 C878 (UniProt Q8TD19) | -0.014 | 0.0567 | 0.331 | 0.136
11 | NFKB1 C61 (UniProt P19838) | 0.474 | 0.953 | -0.15 | -0.128
12 | NOP56 C384 (UniProt O00567) | -0.178 | -0.0101 | -0.00416 | 0.148
13 | NOL11 C333 (UniProt Q9H8H0) | 0.23 | -0.0506 | -0.0939 | -0.0821
14 | NDUFB7 C90 (UniProt P17568) | 0.0348 | 0.395 | 0.0887 | 0.339
15 | NLRX1 C331 (UniProt Q86UT6) | 0.44 | -0.202 | 0.232 | -0.159
16 | NMD3 C250 (UniProt Q96D46) | 0.144 | -0.0977 | 0.129 | -0.12

Some entries already given, reduced to log2 mean competition ratio ([1]; 50 µM):
Row | Target | log2 mean competition ratio ([1]; 50 µM)
10 | NEK9 C878 (UniProt Q8TD19) | -0.014
11 | NFKB1 C61 (UniProt P19838) | 0.474

Reference: the supplement of paper PMC11732987, “Enantioselective OTUD7B fragment discovery through chemoproteomics screening and high-throughput optimisation” (Communications Chemistry, 2025)
